PubChem BioAssay AID1224830 | NIAID, 2016
Here is a random part of about 18,000 reagents. Over the whole deposit, about 2,900 (16%) got an active call. 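Calls are made per well; low scores hint the gene aids the LPS response, high scores that it dampens it.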 Repeated entries: four replicate wells of each siRNA pool.

Screen: 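Regulators of TLR4 signalling towards TNF-alpha in macrophage-like cells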 (primary screen)
System: human THP-1 monocytic leukaemia cells, TNF dual-luciferase reporter clone, PMA-differentiated to macrophage-like cells
Reagent: siRNA pool against human genes, 50 nM
Duration: LPS for 4 h, given about 3 days after siRNA transfection
Challenge: bacterial LPS (TLR4 ligand), 10 ng/ml
Measurement: 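Ratio of firefly to renilla light, scaled to the plate median and expressed as a robust z-score per replicate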
Direction: TNF reporter robust z-score: higher = stronger TNF reporter response to LPS
Call rule: 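Each well counts as active if its z-score is over 2.8 or under -1.5; controls are left without a call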

no.	target gene	TNF reporter robust z-score	call
1	CENPO	-1.91	active
2	CENPO	-0.58	inactive
3	CENPO	-1.25	inactive
4	CENPO	-1.53	active
5	BRSK1	0.6	inactive
6	BRSK1	0.58	inactive
7	BRSK1	1.92	inactive
8	BRSK1	1.42	inactive
9	OR6C2	-0.33	inactive
10	OR6C2	0.49	inactive
11	OR6C2	0.63	inactive
12	OR6C2	1.18	inactive
13	GKN2	2.21	inactive
14	GKN2	2	inactive
15	GKN2	0.49	inactive
16	GKN2	1.89	inactive
17	STX11	0.16	inactive
18	STX11	-0.7	inactive
19	STX11	0.03	inactive
20	STX11	-0.16	inactive
21	PLP2	0.19	inactive
22	PLP2	0.35	inactive
23	PLP2	1.04	inactive
24	PLP2	0.06	inactive
25	PPIC	-1.01	inactive
26	PPIC	0.94	inactive
27	PPIC	-0.28	inactive
28	PPIC	-0.33	inactive
29	ALDH1L1	-0.22	inactive
30	ALDH1L1	-1.26	inactive
31	ALDH1L1	-1.11	inactive
32	ALDH1L1	-0.19	inactive
33	MC2R	-0.77	inactive
34	MC2R	-0.74	inactive
35	MC2R	-1.07	inactive
36	MC2R	-0.75	inactive
37	MOGAT1	1	inactive
38	MOGAT1	0.99	inactive
39	MOGAT1	1.05	inactive
40	MOGAT1	1.59	inactive
41	FDCSP		inactive
42	FDCSP	-0.8	inactive
43	FDCSP	-0.76	inactive
44	FDCSP	-0.98	inactive
45	FDCSP	-0.92	inactive
46	SMARCC1	0.58	inactive
47	SMARCC1	2.15	inactive
48	SMARCC1	0.44	inactive
49	SMARCC1	1.21	inactive
50	SHROOM3	0.66	inactive
51	SHROOM3	1.13	inactive
52	SHROOM3	0.36	inactive
53	SHROOM3	0.99	inactive
54	MYOT	0.59	inactive
55	MYOT	0.85	inactive
56	MYOT	1.49	inactive
57	EIF3H	-0.33	inactive
58	EIF3H	-1.26	inactive
59	EIF3H	-0.26	inactive
60	EIF3H	-0.38	inactive
61	ZCCHC9	3.36	active
62	ZCCHC9	2.49	inactive
63	ZCCHC9	3.28	active
64	ZCCHC9	0.69	inactive
65	TMC2	0.22	inactive
66	TMC2	0.46	inactive
67	TMC2	0.47	inactive
68	TMC2	0.59	inactive
69	HUS1	-0.68	inactive
70	HUS1	0.67	inactive
71	HUS1	-0.79	inactive
72	HUS1	-0.18	inactive
73	NPSR1	-0.1	inactive
74	NPSR1	0.47	inactive
75	NPSR1	-0.15	inactive
76	NPSR1	0.14	inactive

Quoted from the listing, 11 entries:
no.	target gene	TNF reporter robust z-score	call
13	GKN2	2.21	inactive
14	GKN2	2	inactive
15	GKN2	0.49	inactive
16	GKN2	1.89	inactive
17	STX11	0.16	inactive
18	STX11	-0.7	inactive
19	STX11	0.03	inactive
20	STX11	-0.16	inactive
21	PLP2	0.19	inactive
22	PLP2	0.35	inactive
23	PLP2	1.04	inactive
